No constants are given. Whether binding was seen depends on the method and setting. In cells and extracts the contact can be indirect. Some results given as binding are weak or reduced against the parent protein; the word gives no strength. For part of these data: Tags and fused reporters may be left off the sequences shown.
B1: WDR35 (mouse), FLAG- or HA-tagged (protein, UniProt Q8BND3 1-1181)
chain: MFFYLSKKIAVPNNVKLKCISWNKDQGFIACGGEDGLLKVLRLETQTDDSKLRGLAAPSNLSMNQNLEGHSGAVQVVTWNEQYQKLTTSDQNGLIIVWMLYKGSWYEEMINNRNKSVVRSMSWNADGQKICIVYEDGAVIVGSVDGNRIWGKDLKGIQLCHVTWSADSKILLFGMANGEIHIYDNQGNFIMKMKLNCLVNVTGAISIAGIHWYHGTEGYVEPDCPCLAICFDNGRCQIMRHENDQNPVLIDTGMYVVGIQWNHIGSVLAVAGSQKVVTQDKDINIVQFYTPFGEHLGTLKVPGKQMCSLSWEGGGLKIALAVDSFIYFANIRPDYKWGYCSNTVVYAYTRPDRPEYCVVFWDTKNSEKYVKYVKSLISITTCGDFCILATKADENHPQEENEMETFGATFVLVLCNSIGTPLDPKYIDLVPLFVAMTKTHVIAASKEAFYTWQYRVAKKLTALEINQITRSRKEGRERIYHVDDVPSGSVDGVFDYSKAIQGTRDPICAITASDKTLIVGRESGVIQRYSFPNVALIQKYSLDCRACQLSLNCNSSRLAIIDIAGVLTFFDLDTRVTDSTGQQVVGELLKLERKDVWDMKWAKDNPDLFAMMEKTRMYVFRNLDPEEPIQTSGYICNFEDLEIKSVLLDEILKDPEHPSKDYIMNFEIRSLRDSRALIEKVGIEDASQFIEDNPHPRLWRLLAEAALQKLDLYTAQQAFVRCKDYQGIKFVKLLGNLQSESMKQAEVIAYFGRFEDAERMYQDMDRRDLAIGLRMKLGDWFRVLQLLKTGSGDADDSLLEQANNAIGEYFADRQKWQNAVQYYVKGRNQERLAECYYMLEDYEGLETLANSLPENHKLLPEIAQMFVRVGMCEQAVSAFLKCNQPKAAVDTCVHLNQWNKAVELAKSHSMKEIGSLLARYASHLLEKNKTLDAIELYRKASYFFDAAKLMYKIADEEAKKRTKPLRVKKLYVLSALLIEQYHEQMKNAQRGKVKGKNSEATSALAGLLEEEVLSTTSRFTDNAWRGAEAYHFFILAQRQLYEGYVDTALKTALHLRDYEDIIPSVEIYSLLALCACASRAFGTCSKAFIKLESLETLSAEQKQQYEDLALEIFTKHTPKDNRKSELNSLLEGGEGKLPTCIATGSPIIEYQFWVCKVCKHYVLAQEISNYNFCPLCHSSVE
B2: IFT22 (mouse), FLAG- or HA-tagged (protein, UniProt Q9DAI2 1-185)
chain: MLKAKILFVGPCESGKTVLANFLTESSDITEYNPTQGVRILEFENPHVTSNNKGTGCEFELWDCGGDSKFESCWPALMKDAHGVVIVFNADIPSHLKEIEMWYSCFVQQQFLQDSHCMLVAHHKPGSGGERGSLALSPPLNKLKLVHSNLEEDPEEVRVEFIKYLKSIINSMSESRDREEMLIIT
B3: IFT81 (mouse), FLAG- or HA-tagged (protein, UniProt O35594 1-676)
chain: MSDQIKFIVDSLNKEPFKKNYNLITFDSLGPMQLLQVLNDVLAEIDPKQDVDIREEMPEQTAKRMLNLLGILKYKPPGNATDMSTFRQGLVIGSKPVIYPVLHWLLQRSNELKKRAYLARFLIKLEVPSEFLQDETVADTNKQYEELMEAFKTLHKECEQLKTSGFSTAEIRRDISAMEEEKDQLMKRVERLKKRVETVQNHQRMLKIARQLRVEKEREEFLAQQKQEQKNQLFHAVQRLQRVQNQLKSMRHAAADAKPESLMKRLEEEIKFNSYMVTEKFPKELESKKKELHFLQKVVSEPAMGHSDLLELETKVNEVNTEINQLIEKKMMRNEPIEGKLSLYRQQASIISRKKEAKAEELQETKEKLASLEREVLVKTNQTREFDGTEVLKGDEFKRYVSKLRSKSTVFKKKHQIIAEFKAEFGLLQRTEELLKQRQETIQHQLRTIEEKKGISGYSYTQEELERVSALKSEVDEMKGRTLDDMSEMVKKLNSLVSEKKSALAPVIKELRQLRQKCQELTQECDEKKAQYDSCAAGLESNRSKLEQEVRGLREECLQEESKYHYTNCMIKNLEVELRRATDEMKAYVSSDQQEKRKAIREQYTKNITEQENLGKKLREKQKAVRESHGPNMKQAKMWRDLEQLMECKKQCFLKQQSPASIGQVIQEGGEDRLVL
B4: ARMC4 (mouse), FLAG- or HA-tagged (protein, UniProt B2RY50 1-1037)
chain: MGVALTRLAQWTAAGYETGTLEITPLNESILNEITKFVESFSYKYPQEAKFVFVEPLEWKTYLEPSAFELGYVVSATTAESEETGKDGQPLLFLSVPYIKVRSFGQLSQLLSIATDSKLQEAQACIEANRDPVVKILGPDYNEMKEDPTRLTLLDTIIKDKETYMKRKVAILLKQLDLHLLNHSLKYISLEISLNPGTFKKDIELLKRFSGKGEQTVLESIEYTSDYEFSNGCRAPPWRQIQGEICYVLVKPHDMETLCLTCSTEGVFLNGGKTEEEGEINYERKGEIYKDLVTCLKDKSPVFSENMSKHEIRFTEEQQKDNQIFEKPKTEDGHSSVAGSEKSKIEKISFGKSPMTKRLEPSLNWRVTVDYKDHKSSIKDSQEEKQGKLEKSSSVSVAPSRAQSHRKGGEKVEETVSESSSESEEDEEPPDHRQEANADLPSEYWQIQKLVKYLKGGNQTATVIALCSMRDFNLAQETCQLAIRDVGGLEVLINLLDTDEVKCKIGSLKILKEISHNPQIRRNIVDLGGLPIMVNILDSPHKSLKCLSAETIANVAKFKRARRAVRQHGGITKLVALLDCGQNSTEPTQPSLYETRDVEVARCGALALWSCSKSHSNKEAIRKAGGIPLLARLLKTSHENMLIPVVGTLQECASEENYRAAIKAERIIENLVKNLNSENEQLQEHCAMAIYQCAEDEETRDLVRLHGGLKPLASLLNNTDNKERLAAVTGAIWKCSISKENVIKFREYKAIETLVGLLTDQPEEVLVNVVGALGECCQEYENRVLVRKCGGIQPLVNLLVGINQALLVNVTKAVGACAVEPESMAIIDRLDGVRLLWSLLKNPHPDVKASAAWALCPCIENAKDAGEMVRSFVGGLELVVNLLKSDNKEVLASVCAAITNIAKDQENLAVITDHGVVPLLSKLANTNNDKLRRHLAEAISRCCMWGRNRVAFGEHKAVAPLVRYLKSNDTNVHRATAQALYQLSEDADNCITMHENGAVKLLLDMVGSPDQDLQEAAAGCISNIRRLALATEKARYN
B5: RSPH3A (mouse), FLAG- or HA-tagged (protein, UniProt Q3UFY4 1-516)
chain: MAATNIWAALPAKKRPLHQRARRPAGGRGREPEVPFTTDPSGNPAGRNCLEFLPPGGTSGCSATDGGATVPLALRPFLRERRPLGSQHPCPWHYLQVSDYDDSLAPTCFRAHLHRRGSSSTLNQASAMTDPNPRTAEASGLYTYSSRPRAVACQRRRHRDSILQPVEEPMSYGNIMYDRRVIRGNTYALPTGQVPGQPDPLELQRQQQARRRALARKRAQEQLKPRTPEPVEGRKHVDIQTELYLEEIADRIVEVDMECQTDAFLDRPPTPLFIPAKTGKDVATQILGGELFDFDLEVKPMLEVLVGKTIEQSLLEVMEEEELANLRARQYAYEEIRNVELAEVQRLEEQERRHREEKERRKKQQWEIVHKRNETLQKISALIFARQYLANLLPSVFDKLRNSGFFYDPIERDIEVGFLPWLMNEVEKSMEHSMVGRTVLDMLIRDVVERRINDYEHKEAMPPGQKTNVINGPNTVTDPSVTTLHTQKPVLDRVSSQPAPSQERKPVEEGGHLMAE
B6: ROPN1L (mouse), FLAG- or HA-tagged (protein, UniProt Q9EQ00 1-218)
chain: MPLPDTMFCAQQIHIPPELPDILKQFTKAAIRTQPADVLQWSAGYFSALSRGDPLPVKDRIEMPVATQKTDTGLTQGLLKVLHKQCSHKQYVELADLEKKWKNLCLPVEKLRTILELDPCEDKIEWIKFLALGCSSLGRTLNTAMKNVCEILTSDPEGGPARIPFETFAYVYQYLSGLDPELPAVETENYLTSLRLMSESRKNGMIGLSDFFVGKKII
B7: RSPH9 (mouse), FLAG- or HA-tagged (protein, UniProt Q9D9V4 1-276)
chain: MDADSLLLSLELASGSGQGLSPDRRASLLTSLMLVKRDYRFARVLFWGRILGLVADYYIAQGLSEDQLAPRKTLYSLNCTEWSLLPPATEEMAMQISVVSGRFMGDPSHEYEHTELQKVNEGEKVFDEEVVVQIKEETRLVSIIDQIDKAVAIIPRGALFKTPFGVTHVNRTFEGLPLSEVRKLSSYFHFREAIDLKNKTLLEKSDLEPSLDFLDSLEYDIPRGSWSIQMERGNALVVLRSLLWPGLTFYHAPRTKNYGYIYVGTGEKNMDLPFML
B8: DYNLRB2 (mouse), FLAG- or HA-tagged (protein, UniProt Q9DAJ5 1-96)
chain: MTEVEETLKRIQSHKGVIGTMVVNAEGIPIRTTLDNSTTVQYAGLLHQLTMKAKSTVRDIDPQNDLTFLRIRSKKHEIMVAPDKEYLLIVIQNPCE
B9: IFT74 (mouse), FLAG- or HA-tagged (protein, UniProt Q8BKE9 1-600)
chain: MASNHKSSAPRPISRGGIGLTGRPPSGIRPPSGNVRVATAMPPTTARPGSRGGPLGTGGVLSSQIKVADRPVTQQGLSGMKTGMKGPQRQILDKSYYLGLLRSKISELTTEINKLQKEIEMYNQENSVYLSYEKRAETLAVEIKDFQGQLADYNMLVDKLNTNTEMEEVMSDYNMLKAQNDRETQSMDVIFTERQAKEKQIRSVEEEVEQEKQAADGIIKNMSPEKQVKYIEMKTTNEKLLQELDTLQQQLDSLNMKKESLETEIAHSQVKQEAVLLYEKLYELESHRDQMIAEDKSMGSPMEERERLLKQVKEDNQEIASMERQLTDIKEKINQFSEEIRQLDMDLEEHQGEMNQKYKELKKREENMDAFIETFEETKNQELERKAQIEASIITLLEHCSRNINRMKQISSITNQELKMMQDDLSFKSTEMQKSQTTARNLTSDSQRLQLDLQKMELLESKMTEEQQSLKNKIKQMTADLETYSDLAALKSSAEEKKKKLHQERTVLSTHRNAFKKIMEKLTSDYDTLKRQLQDNETHAQLTNLERKWQHLEQNNFVMKEFIATKSQESDYQPVIKNVMKQIAEYNKTIMDALHNASRS

Sequences of proteins named here, by UniProt entry; tags and fusion partners are left off.
UniProt Q8CEL2: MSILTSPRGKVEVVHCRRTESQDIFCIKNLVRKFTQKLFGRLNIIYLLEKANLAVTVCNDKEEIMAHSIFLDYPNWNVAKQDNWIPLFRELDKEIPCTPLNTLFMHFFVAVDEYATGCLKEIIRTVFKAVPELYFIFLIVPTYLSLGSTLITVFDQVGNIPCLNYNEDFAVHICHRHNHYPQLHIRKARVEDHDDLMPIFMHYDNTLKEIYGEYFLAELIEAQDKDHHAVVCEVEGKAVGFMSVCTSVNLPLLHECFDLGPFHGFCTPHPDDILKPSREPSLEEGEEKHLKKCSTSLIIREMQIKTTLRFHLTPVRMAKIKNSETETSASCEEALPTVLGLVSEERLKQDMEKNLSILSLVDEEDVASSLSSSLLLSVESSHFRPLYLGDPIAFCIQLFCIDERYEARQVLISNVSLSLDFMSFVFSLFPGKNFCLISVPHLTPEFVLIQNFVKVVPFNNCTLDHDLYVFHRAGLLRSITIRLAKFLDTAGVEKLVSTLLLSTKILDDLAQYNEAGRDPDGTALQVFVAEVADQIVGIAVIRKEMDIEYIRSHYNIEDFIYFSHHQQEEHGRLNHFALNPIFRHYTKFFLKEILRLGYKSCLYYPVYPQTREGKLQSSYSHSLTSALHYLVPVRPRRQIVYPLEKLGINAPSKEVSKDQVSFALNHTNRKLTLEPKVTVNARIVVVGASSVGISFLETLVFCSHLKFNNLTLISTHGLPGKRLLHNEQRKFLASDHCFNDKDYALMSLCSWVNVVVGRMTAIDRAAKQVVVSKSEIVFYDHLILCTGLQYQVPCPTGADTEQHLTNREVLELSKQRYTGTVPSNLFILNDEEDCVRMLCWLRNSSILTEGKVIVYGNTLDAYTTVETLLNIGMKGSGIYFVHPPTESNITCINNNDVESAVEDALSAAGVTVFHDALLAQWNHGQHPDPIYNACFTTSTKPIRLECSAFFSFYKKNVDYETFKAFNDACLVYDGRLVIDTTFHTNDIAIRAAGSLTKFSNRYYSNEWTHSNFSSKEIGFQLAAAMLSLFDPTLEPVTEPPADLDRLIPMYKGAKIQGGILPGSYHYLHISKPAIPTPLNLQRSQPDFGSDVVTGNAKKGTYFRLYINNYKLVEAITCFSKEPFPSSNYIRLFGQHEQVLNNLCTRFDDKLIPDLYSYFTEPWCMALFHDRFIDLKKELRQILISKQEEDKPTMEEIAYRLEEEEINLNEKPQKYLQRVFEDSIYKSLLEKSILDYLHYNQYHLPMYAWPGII
UniProt Q6PDL0: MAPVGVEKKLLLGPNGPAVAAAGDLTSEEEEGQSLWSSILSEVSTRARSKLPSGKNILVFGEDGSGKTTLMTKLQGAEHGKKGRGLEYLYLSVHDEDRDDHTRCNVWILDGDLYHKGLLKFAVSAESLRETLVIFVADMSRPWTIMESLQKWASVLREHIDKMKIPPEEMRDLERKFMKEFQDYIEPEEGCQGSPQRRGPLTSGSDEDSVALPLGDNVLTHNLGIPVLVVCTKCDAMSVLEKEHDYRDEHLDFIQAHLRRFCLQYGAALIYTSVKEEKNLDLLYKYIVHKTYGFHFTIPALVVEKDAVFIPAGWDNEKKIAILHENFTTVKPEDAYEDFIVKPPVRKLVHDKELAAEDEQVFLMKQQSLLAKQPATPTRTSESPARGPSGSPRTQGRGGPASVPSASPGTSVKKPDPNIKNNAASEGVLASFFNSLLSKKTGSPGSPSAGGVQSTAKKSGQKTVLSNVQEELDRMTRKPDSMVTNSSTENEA
UniProt Q8BRC6: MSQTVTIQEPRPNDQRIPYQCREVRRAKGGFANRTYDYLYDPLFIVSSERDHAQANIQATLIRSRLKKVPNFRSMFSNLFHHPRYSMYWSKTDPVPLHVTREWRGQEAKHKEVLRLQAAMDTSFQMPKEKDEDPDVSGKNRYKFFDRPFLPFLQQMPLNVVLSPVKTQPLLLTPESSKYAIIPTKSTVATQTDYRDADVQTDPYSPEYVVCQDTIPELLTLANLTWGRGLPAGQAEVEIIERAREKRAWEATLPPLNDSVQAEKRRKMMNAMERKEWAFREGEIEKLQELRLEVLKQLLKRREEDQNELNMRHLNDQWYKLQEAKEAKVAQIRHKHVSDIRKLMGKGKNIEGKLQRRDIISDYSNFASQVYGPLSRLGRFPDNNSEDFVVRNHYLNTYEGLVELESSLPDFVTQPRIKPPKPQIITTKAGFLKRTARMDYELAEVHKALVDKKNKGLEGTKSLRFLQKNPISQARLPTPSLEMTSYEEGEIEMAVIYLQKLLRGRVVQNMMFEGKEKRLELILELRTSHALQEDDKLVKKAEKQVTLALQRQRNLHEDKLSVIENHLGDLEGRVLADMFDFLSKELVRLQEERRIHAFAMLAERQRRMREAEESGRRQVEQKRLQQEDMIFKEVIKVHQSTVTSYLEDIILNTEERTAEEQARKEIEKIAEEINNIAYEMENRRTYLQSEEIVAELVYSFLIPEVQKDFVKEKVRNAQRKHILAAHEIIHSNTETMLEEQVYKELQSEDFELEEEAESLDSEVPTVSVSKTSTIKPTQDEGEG
UniProt Q9ESG2: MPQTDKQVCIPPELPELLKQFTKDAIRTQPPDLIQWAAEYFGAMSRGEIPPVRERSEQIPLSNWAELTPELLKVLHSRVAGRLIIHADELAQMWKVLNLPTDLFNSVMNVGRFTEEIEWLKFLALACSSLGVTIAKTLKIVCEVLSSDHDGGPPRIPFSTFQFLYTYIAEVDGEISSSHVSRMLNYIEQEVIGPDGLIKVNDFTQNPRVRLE

Each molecule was assayed against CFAP61 (mouse), FLAG- or HA-tagged (mouse) (UniProt Q8CEL2) (assay: co-IP).

**Q.** Which binding does the source give for “DYNCLI2 (mouse), FLAG- or HA-tagged (from UniProt Q6PDL0 1-492)” here?
**A.** binds

**Q.** For “MAATS1 (mouse), FLAG- or HA-tagged (from UniProt Q8BRC6 1-783)”, which binding is on record?
**A.** binds

**Q.** How did the binding turn out when “ROPN1 (mouse), FLAG- or HA-tagged (from UniProt Q9ESG2 1-212)” was run?
**A.** binds

Target: CFAP61 (mouse), FLAG- or HA-tagged (mouse) (UniProt Q8CEL2)
Assay: co-IP
Remark: another data set of the same source

**Q.** For B1, which binding is on record?
**A.** binds

**Q.** How did the binding turn out when B2 was run?
**A.** binds

**Q.** B3 was tested. Which binding did it give?
**A.** binds

**Q.** B4 was tested. Which binding did it give?
**A.** binds

**Q.** Which binding does the source give for B5 here?
**A.** binds

**Q.** Which binding does the source give for B6 here?
**A.** binds

**Q.** B7 was tested. Which binding did it give?
**A.** binds

**Q.** For B8, which binding is on record?
**A.** no binding

**Q.** With B9 as the molecule, how does the binding read?
**A.** no binding

From publication doi:10.1101/2021.03.04.433881
